Results are given in words; binding and its absence hold for the method and conditions named.
Molecular target: TIA-1 deletion mutant lacking the fibril core region (residues 336-360) (human) (UniProt P31483)
Assay: thioflavin T fluorescence + negative-stain TEM; fibril formation of recombinant full-length TIA-1 from phase-separated condensates, with single-stranded DNA TC5, physiological buffer, 30 °C, up to 3 days; both purified

B1: TIA-1 deletion mutant lacking the fibril core region (residues 336-360) (protein, UniProt P31483)
chain: MEDEMPKTLYVGNLSRDVTEALILQLFSQIGPCKNCKMIMDTAGNDPYCFVEFHEHRHAAAALAAMNGRKIMGKEVKVNWATTPSSQKKDTSSSTVVSTQRSQDHFHVFVGDLSPEITTEDIKAAFAPFGRISDARVVKDMATGKSKGYGFVSFFNKWDAENAIQQMGGQWLGGRQIRTNWATRKPPAPKSTYESNTKQLSYDEVVNQSSPSNCTVYCGGVTSGLTEQLMRQTFSPFGQIMEIRVFPDKGYSFVRFNSHESAAHAIVSVNGTTIEGHVVKCYWGKETLDMINPVQQQNQIGYPQPYGQWGQWYGNAQQIGQYMPNGWQVPAYGMYQPPQGQNGSMLPNQPSGYRVAGYETQ
- binding: no binding
